Reference: the supplement of paper PMC6078165

Test system: Hs578T
Test: relative JC-1 red fluorescence (viability) vs pre-drug, coculture with fibroblast (fraction); higher = more viable cancer cells
Procedure: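 JC-1 labelled TNBC cells cocultured 1:1 (1,500 cells each) with CellTrace Violet stained primary or stromal fibroblasts in 384-well plates in FluoroBrite medium, treated with one of 42 anticancer drugs at 0.1, 1, 10 or 100 uM. JC-1 red fluorescence (mitochondrial integrity in cancer cells only) was read by plate reader every 8 h for 72 h. Values are normalised to each well's pre-drug value. The stock of one drug was tenfold lower, so its dose labels may be too high.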

O=c1[nH]cc(F)c(=O)[nH]1 [Fluorouracil]
relative JC-1 red fluorescence
Conditions	8 h	16 h	24 h	32 h	40 h	48 h	56 h	64 h	72 h
10 µM	0.915	0.791	0.748	0.707	0.65	0.614	0.596	0.5583	0.555
100 µM	0.869	0.762	0.725	0.689	0.642	0.606	0.598	0.5688	0.5646

relative JC-1 red fluorescence
Conditions	8 h	16 h	24 h	32 h	40 h	48 h	56 h	64 h	72 h
10 µM, coculture fibroblast: C12385	0.826	0.715	0.655	0.561	0.495	0.461	0.423	0.403	0.391
10 µM, coculture fibroblast: H6013	0.903	0.824	0.773	0.743	0.704	0.696	0.669	0.66	0.637
10 µM, coculture fibroblast: H6019	0.782	0.655	0.669	0.576	0.55	0.531	0.511	0.508	0.5
10 µM, coculture fibroblast: H6076	0.877	0.754	0.73	0.73	0.682	0.691	0.676	0.678	0.68
10 µM, coculture fibroblast: H6231	0.8827	0.7899	0.687	0.667	0.602	0.578	0.528	0.503	0.487
10 µM, coculture fibroblast: HADF	0.906	0.862	0.799	0.76	0.713	0.681	0.632	0.613	0.573
10 µM, coculture fibroblast: HCFa	0.891	0.815	0.691	0.652	0.58	0.548	0.509	0.487	0.455
10 µM, coculture fibroblast: HCPF	0.939	0.844	0.778	0.736	0.673	0.641	0.603	0.567	0.531
10 µM, coculture fibroblast: HHSteC	0.922	0.805	0.729	0.674	0.598	0.556	0.519	0.493	0.456
10 µM, coculture fibroblast: HMF	0.876	0.769	0.7059	0.688	0.625	0.601	0.563	0.548	0.533
10 µM, coculture fibroblast: HPFa	0.9352	0.895	0.788	0.715	0.6758	0.6373	0.5997	0.5792	0.5366
10 µM, coculture fibroblast: HUF	0.865	0.7263	0.698	0.583	0.514	0.479	0.446	0.4329	0.419
10 µM, coculture fibroblast: Hs27A	0.888	0.828	0.746	0.702	0.641	0.62	0.585	0.575	0.538
10 µM, coculture fibroblast: Hs343T	0.9162	0.791	0.719	0.678	0.609	0.573	0.525	0.496	0.475
10 µM, coculture fibroblast: WS1	0.838	0.719	0.675	0.574	0.521	0.501	0.471	0.467	0.4578
100 µM, coculture fibroblast: C12385	0.798	0.701	0.677	0.585	0.527	0.504	0.479	0.462	0.448
100 µM, coculture fibroblast: H6013	0.916	0.845	0.801	0.774	0.725	0.702	0.668	0.641	0.6
100 µM, coculture fibroblast: H6019	0.7421	0.668	0.664	0.5666	0.53105	0.505	0.484	0.469	0.451
100 µM, coculture fibroblast: H6076	0.939	0.891	0.842	0.799	0.735	0.716	0.685	0.658	0.648
100 µM, coculture fibroblast: H6231	0.882	0.773	0.7326	0.6934	0.63	0.607	0.567	0.544	0.528
100 µM, coculture fibroblast: HADF	0.917	0.862	0.808	0.748	0.697	0.652	0.606	0.586	0.547
100 µM, coculture fibroblast: HCFa	0.845	0.78	0.728	0.676	0.614	0.594	0.556	0.54	0.498
100 µM, coculture fibroblast: HCPF	0.925	0.811	0.7741	0.735	0.668	0.646	0.626	0.582	0.567
100 µM, coculture fibroblast: HHSteC	0.8465	0.752	0.68	0.631	0.579	0.544	0.523	0.493	0.46
100 µM, coculture fibroblast: HMF	0.854	0.7824	0.75	0.7309	0.675	0.6449	0.624	0.604	0.5894
100 µM, coculture fibroblast: HPFa	0.9355	0.8372	0.804	0.764	0.739	0.718	0.682	0.663	0.625
100 µM, coculture fibroblast: HUF	0.859	0.761	0.727	0.623	0.562	0.524	0.487	0.474	0.466
100 µM, coculture fibroblast: Hs27A	0.8957	0.855	0.81	0.777	0.721	0.698	0.663	0.65	0.59
100 µM, coculture fibroblast: Hs343T	0.9019	0.823	0.776	0.754	0.686	0.651	0.625	0.598	0.574
100 µM, coculture fibroblast: WS1	0.758	0.706	0.676	0.583	0.53	0.518	0.492	0.485	0.479

Values are relative to the signal before dosing, not to a vehicle control; the signal also falls without drug.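 Labels refer to human fibroblasts, largely primary: uterine (C12385, HUF), lung (H6013), bone (Hs27A), adrenal (HADF), skin (WS1), plus mammary HMF and breast cancer-associated Hs343T. Cancer lines are basal-like or mesenchymal-like triple-negative breast cancer. The paper counts as hits responses shifting over 3x the replicate standard deviation. The tissue of the other fibroblasts is not given here.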
